Results: paper PMC8222256

Sequences of proteins named here, by UniProt entry; tags and fusion partners are left off.
UniProt P46100: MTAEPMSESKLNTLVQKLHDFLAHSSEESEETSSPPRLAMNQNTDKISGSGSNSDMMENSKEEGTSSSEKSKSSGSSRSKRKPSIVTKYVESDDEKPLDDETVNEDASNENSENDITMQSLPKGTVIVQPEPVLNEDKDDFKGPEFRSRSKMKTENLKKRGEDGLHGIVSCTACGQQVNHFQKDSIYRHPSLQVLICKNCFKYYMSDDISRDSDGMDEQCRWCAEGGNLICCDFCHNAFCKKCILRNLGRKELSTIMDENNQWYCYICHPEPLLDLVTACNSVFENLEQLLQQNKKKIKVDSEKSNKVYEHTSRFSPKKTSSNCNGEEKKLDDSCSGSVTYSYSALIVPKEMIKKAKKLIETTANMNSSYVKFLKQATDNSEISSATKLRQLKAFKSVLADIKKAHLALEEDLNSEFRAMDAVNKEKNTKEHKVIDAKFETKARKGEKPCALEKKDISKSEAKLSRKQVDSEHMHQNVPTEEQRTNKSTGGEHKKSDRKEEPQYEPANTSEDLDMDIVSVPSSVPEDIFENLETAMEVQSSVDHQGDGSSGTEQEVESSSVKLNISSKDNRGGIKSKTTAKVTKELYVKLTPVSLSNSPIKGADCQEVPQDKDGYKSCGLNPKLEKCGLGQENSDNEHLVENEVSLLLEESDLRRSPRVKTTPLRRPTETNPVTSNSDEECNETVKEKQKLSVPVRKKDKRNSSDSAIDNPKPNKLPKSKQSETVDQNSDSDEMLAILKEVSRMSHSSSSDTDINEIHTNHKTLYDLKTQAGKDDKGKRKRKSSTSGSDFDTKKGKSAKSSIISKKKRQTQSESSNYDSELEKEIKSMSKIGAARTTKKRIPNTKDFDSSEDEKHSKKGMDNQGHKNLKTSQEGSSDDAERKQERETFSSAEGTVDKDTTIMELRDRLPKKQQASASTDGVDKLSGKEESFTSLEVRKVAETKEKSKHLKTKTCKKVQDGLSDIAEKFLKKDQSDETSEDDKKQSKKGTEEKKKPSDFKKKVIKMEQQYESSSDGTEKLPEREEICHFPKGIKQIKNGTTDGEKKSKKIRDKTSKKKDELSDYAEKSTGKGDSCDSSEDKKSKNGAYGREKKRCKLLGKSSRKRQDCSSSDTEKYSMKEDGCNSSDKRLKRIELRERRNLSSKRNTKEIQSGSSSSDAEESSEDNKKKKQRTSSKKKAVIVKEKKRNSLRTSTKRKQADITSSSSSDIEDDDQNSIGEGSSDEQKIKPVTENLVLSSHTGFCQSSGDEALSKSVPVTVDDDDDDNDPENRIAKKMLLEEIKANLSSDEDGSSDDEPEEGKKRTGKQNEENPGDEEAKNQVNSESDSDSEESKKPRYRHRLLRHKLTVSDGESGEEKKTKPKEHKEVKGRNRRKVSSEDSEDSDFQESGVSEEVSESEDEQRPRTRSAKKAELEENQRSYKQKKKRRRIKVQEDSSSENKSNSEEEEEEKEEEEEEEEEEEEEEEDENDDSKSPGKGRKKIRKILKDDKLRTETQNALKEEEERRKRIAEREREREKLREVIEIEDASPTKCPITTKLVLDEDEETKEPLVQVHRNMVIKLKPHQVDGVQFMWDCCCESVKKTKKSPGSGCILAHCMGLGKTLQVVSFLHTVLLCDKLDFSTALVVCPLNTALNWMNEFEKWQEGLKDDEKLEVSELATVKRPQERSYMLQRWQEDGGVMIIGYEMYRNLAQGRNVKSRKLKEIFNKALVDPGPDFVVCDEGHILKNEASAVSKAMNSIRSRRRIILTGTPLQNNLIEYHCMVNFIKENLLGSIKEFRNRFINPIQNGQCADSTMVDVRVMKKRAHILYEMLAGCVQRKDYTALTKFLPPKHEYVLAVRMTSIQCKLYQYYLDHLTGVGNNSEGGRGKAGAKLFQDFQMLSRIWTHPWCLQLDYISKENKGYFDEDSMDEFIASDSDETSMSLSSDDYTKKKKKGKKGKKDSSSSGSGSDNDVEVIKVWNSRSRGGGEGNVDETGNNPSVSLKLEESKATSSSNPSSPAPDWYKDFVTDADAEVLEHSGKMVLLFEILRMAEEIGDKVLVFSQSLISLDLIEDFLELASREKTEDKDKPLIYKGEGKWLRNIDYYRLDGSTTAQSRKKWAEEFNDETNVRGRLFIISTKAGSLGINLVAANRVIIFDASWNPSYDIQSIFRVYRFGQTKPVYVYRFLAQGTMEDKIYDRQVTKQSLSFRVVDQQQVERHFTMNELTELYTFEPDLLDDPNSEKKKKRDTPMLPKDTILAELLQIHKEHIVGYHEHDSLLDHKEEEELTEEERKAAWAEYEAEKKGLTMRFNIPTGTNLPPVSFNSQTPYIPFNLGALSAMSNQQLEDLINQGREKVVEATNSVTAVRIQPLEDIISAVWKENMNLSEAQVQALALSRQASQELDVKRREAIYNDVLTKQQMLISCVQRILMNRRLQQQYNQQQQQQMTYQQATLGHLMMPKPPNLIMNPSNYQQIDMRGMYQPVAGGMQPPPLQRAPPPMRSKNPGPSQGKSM
UniProt Q13206: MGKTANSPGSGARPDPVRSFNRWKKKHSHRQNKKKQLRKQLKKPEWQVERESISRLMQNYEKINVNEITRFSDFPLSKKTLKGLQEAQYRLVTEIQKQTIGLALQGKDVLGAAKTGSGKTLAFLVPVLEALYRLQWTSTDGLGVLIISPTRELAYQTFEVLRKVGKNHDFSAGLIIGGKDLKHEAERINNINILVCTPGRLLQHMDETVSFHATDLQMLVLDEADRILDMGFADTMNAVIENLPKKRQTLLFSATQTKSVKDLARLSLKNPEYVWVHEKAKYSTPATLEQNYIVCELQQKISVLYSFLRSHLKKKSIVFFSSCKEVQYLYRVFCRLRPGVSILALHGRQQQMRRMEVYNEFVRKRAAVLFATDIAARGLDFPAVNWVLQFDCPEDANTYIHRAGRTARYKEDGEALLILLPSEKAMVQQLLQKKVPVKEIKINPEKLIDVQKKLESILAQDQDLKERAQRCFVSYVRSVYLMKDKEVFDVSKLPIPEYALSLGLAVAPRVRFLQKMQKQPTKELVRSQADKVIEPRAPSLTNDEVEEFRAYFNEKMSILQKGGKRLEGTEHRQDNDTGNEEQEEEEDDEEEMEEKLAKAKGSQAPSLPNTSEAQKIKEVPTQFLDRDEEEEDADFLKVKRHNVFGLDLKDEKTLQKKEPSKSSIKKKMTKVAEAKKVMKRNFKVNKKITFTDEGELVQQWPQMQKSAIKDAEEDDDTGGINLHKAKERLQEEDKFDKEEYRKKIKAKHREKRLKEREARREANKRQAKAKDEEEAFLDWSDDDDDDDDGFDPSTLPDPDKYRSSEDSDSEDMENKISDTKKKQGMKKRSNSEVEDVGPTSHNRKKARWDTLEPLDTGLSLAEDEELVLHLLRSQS
UniProt P49736: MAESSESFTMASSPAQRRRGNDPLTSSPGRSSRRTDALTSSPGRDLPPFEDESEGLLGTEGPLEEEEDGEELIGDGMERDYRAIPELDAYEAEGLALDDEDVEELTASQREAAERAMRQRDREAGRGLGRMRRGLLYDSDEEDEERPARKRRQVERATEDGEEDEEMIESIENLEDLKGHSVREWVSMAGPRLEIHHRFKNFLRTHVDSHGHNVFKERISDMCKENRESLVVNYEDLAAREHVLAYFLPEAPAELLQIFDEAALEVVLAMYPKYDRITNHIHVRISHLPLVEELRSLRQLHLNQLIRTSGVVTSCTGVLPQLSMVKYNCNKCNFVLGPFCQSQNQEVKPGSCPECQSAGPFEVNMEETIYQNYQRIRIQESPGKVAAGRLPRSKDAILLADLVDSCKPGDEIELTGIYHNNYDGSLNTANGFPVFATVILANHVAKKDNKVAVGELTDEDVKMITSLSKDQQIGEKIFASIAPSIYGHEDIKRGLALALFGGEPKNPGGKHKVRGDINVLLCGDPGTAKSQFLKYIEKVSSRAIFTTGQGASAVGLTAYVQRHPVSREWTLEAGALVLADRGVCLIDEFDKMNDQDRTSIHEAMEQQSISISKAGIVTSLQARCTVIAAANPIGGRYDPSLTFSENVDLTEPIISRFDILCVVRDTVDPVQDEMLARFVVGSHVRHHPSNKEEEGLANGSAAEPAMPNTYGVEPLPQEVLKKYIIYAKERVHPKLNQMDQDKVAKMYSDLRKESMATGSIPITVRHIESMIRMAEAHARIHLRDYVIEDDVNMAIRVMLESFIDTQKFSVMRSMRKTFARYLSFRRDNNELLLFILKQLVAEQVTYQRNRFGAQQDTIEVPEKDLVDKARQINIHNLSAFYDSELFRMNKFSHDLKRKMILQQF

Columns and labels:
[1] = biological target: ATRX (human (endogenous in HeLa)) (UniProt P46100); assay: affinity purification with mass spectrometry; 5 mg pre-cleared HeLa nuclear extract, overnight at 4 °C with 40 μg ATRX antibody cross-linked to Dynabeads Protein G; washes with 20 mM HEPES pH 7.9, 150 mM KCl, 0.01% NP-40; compared with rabbit IgG and with ATRX KO HeLa cells
[2] = biological target: ATRX (human (endogenous in HeLa)), P46100; assay: as above; conditions: remark: other sources report otherwise

Molecule | binding [1] | binding [2]
DDX10 (from UniProt Q13206 1-875) | binds | 
MCM6 (protein, UniProt Q14566 1-821) MDLAAAAEPGAGSQHLEVRDEVAEKCQKLFLDFLEEFQSSDGEIKYLQLAEELIRPERNTLVVSFVDLEQFNQQLSTTIQEEFYRVYPYLCRALKTFVKDRKEIPLAKDFYVAFQDLPTRHKIRELTSSRIGLLTRISGQVVRTHPVHPELVSGTFLCLDCQTVIRDVEQQFKYTQPNICRNPVCANRRRFLLDTNKSRFVDFQKVRIQETQAELPRGSIPRSLEVILRAEAVESAQAGDKCDFTGTLIVVPDVSKLSTPGARAETNSRVSGVDGYETEGIRGLRALGVRDLSYRLVFLACCVAPTNPRFGGKELRDEEQTAESIKNQMTVKEWEKVFEMSQDKNLYHNLCTSLFPTIHGNDEVKRGVLLMLFGGVPKTTGEGTSLRGDINVCIVGDPSTAKSQFLKHVEEFSPRAVYTSGKASSAAGLTAAVVRDEESHEFVIEAGALMLADNGVCCIDEFDKMDVRDQVAIHEAMEQQTISITKAGVKATLNARTSILAAANPISGHYDRSKSLKQNINLSAPIMSRFDLFFILVDECNEVTDYAIARRIVDLHSRIEESIDRVYSLDDIRRYLLFARQFKPKISKESEDFIVEQYKHLRQRDGSGVTKSSWRITVRQLESMIRLSEAMARMHCCDEVQPKHVKEAFRLLNKSIIRVETPDVNLDQEEEIQMEVDEGAGGINGHADSPAPVNGINGYNEDINQESAPKASLRLGFSEYCRISNLIVLHLRKVEEEEDESALKRSELVNWYLKEIESEIDSEEELINKKRIIEKVIHRLTHYDHVLIELTQAGLKGSTEGSESYEEDPYLVVNPNYLLED | binds | 
Mre11, P49959 1-708 (protein) MSTADALDDENTFKILVATDIHLGFMEKDAVRGNDTFVTLDEILRLAQENEVDFILLGGDLFHENKPSRKTLHTCLELLRKYCMGDRPVQFEILSDQSVNFGFSKFPWVNYQDGNLNISIPVFSIHGNHDDPTGADALCALDILSCAGFVNHFGRSMSVEKIDISPVLLQKGSTKIALYGLGSIPDERLYRMFVNKKVTMLRPKEDENSWFNLFVIHQNRSKHGSTNFIPEQFLDDFIDLVIWGHEHECKIAPTKNEQQLFYISQPGSSVVTSLSPGEAVKKHVGLLRIKGRKMNMHKIPLHTVRQFFMEDIVLANHPDIFNPDNPKVTQAIQSFCLEKIEEMLENAERERLGNSHQPEKPLVRLRVDYSGGFEPFSVLRFSQKFVDRVANPKDIIHFFRHREQKEKTGEEINFGKLITKPSEGTTLRVEDLVKQYFQTAEKNVQLSLLTERGMGEAVQEFVDKEEKDAIEELVKYQLEKTQRFLKERHIDALEDKIDEEVRRFRETRQKNTNEEDDEVREAMTRARALRSQSEESASAFSADDLMSIDLAEQMANDSDDSISAATNKGRGRGRGRRGGRGQNSASRGGSQRGRADTGLETSTRSRNSKTAVSASRNMSIIDAFKSTRQQPSRNVTTKNYSEVIEVDESDVEEDIFPTTSKTDQRWSSTSSSKIMSQSQVSKGVDFESSEDDDDDPFMNTSSLRRNRR |  | binds

Now from value to molecule:

binding [1] | binding [2] | Molecule
binds |  | MCM2 (from UniProt P49736 1-904)
binds |  | SPEN (from UniProt Q96T58 1-3664)

These are yes or no findings as the source states them, for the method shown. Binding seen in cells or lysates may run through a third protein. A yes stands for co-enrichment or nearness to the bait. Other partners may have been found.
